Laboratory results as given in patent US6562829B1, “Treatment of hepatic cirrhosis” (Hadasit Medical Research Services & Development Co., Ltd., priority 1997, dated 2003).

Experiments:
[1] = system: TAA-induced liver cirrhosis; type: in vivo, rat
Method: Male Sprague-Dawley rats were divided into three groups. Two groups were injected intraperitoneally with TAA twice weekly for 12 weeks, at a dose of 200 mg/kg body (Muller, A. et al., Exp. Pathol., 34:229-236, 1988; Hori, N. et al., Dig. Dis. Sci., 38:2195-2202, 1993). […] The other group of rats, control rats, was injected with saline. One group of TAA-treated rats and one control group were fed Halofuginone in the diet at a dose of 5 ppm.
For this experiment, rats in group 1 received only Halofuginone (n=4); rats in group 2 received TAA alone without Halofuginone (n=6); and rats in group 3 received TAA with Halofuginone (n=6). Groups 1and 3 received Halofuginone starting three days before the TAA injections were administered. At the end of the experimental period, the rats were sacrificed and the liver was removed and weighed.
Liver samples were taken for histological examination. Briefly, the tissue samples were collected into phosphate-buffered saline (PBS) and fixed overnight in 4% paraformaldehyde in PBS at 4° C. Serial 5 μm sections were prepared after the samples had been dehydrated in graded ethanol solutions, cleared in chloroform and embedded in Paraplast. […]
In addition, the livers were scored in a double-blind evaluation, on a scale of 0-4, for the appearance of fibrotic tissue.

[2] = system: mild dimethylnitrosamine-induced fibrosis; test: Mild dimethylnitrosamine-induced fibrosis in rat liver (Example 2); type: in vivo; conditions: Halofuginone to rats not given dimethylnitrosamine
Method: The specific experimental method used was similar to that of Example 1, except that the dimethylnitrosamine-treated rats were only given 0.25% dimethylnitrosamine in saline, a much lower dose than that given in Example 1 above. Also, the duration of treatment was longer before the rats were sacrificed: 4 weeks as opposed to 3 weeks in Example 1.
The expression of the collagen α1(I) gene was measured as described in Example 1 above. For hydroxyproline analysis, liver samples were hydrolyzed for 22 hours at 110° C. with 6 N HCl. Nitrogen was determined after Kjeldahl digestion by the spectrophotometric procedure using an autoanalyzer as described by Krom [M. D. Krom, Analyst, 105:305-16, 1980]. The collagen-unique amino acid hydroxyproline from the same hydrolysate was determined by amino acid analysis (Biotronik LC 5000, Germany) after post-column derivatization on a cation exchange column (BTC 2710, Biotronik). The results are expressed as the percentage of collagen in total liver proteins.

[3] = system: dimethylnitrosamine-induced hepatic fibrosis; test: Dimethylnitrosamine-induced severe liver fibrosis in rats (Example 1); type: in vivo; conditions: rats given Halofuginone alone
Method: The experimental method was as follows. Male Sprague-Dawley rats were divided into four groups. Two groups were injected intraperitoneally with 1% dimethylnitrosamine in saline for three consecutive days per week for 3 weeks, at a dose of 1 ml/kg body weight. This dosage regimen will induce severe liver fibrosis. The other two groups of rats, control rats, were injected with saline. One group of dimethylnitrosamine-treated rats and one control group were fed Halofuginone in the diet at a dose of 5 mg/kg weight of diet, starting three days before the dimethylnitrosamine injections were administered. At the end of the experimental period, the rats were sacrificed and the liver was removed and weighed.
Liver samples were taken for histological examination. Briefly, the tissue samples were collected into phosphate-buffered saline (PBS) and fixed overnight in 4% paraformaldehyde in PBS at 4° C. Serial 5 μm sections were prepared after the samples had been dehydrated in graded ethanol solutions, cleared in chloroform and embedded in Paraplast. Differential staining of collagenous and non-collagenous proteins was performed with 0.1% Sirius red and 0.1% fast green as a counter-stain in picric acid. This procedure stains collagen red [Gascon-Barre, M., et al., J. Histochem. Cytochem., 37:377-381, 1989].
Liver samples were then hybridized with a probe for rat collagen α1(I) expression. […]

O=C(CC1NCCC[C@H]1O)Cn1cnc2cc(Br)c(Cl)cc2c1=O (stereo partly shown) [Halofuginone]
collagen fibers in liver tissue (Sirius red staining) ([1]; rats given Halofuginone alone): Almost no collagen fibers
double-blind liver fibrosis score ([1]; scale of 0-4, control rats (group 1, received only Halofuginone)): 0
liver hydroxyproline concentration [2]: did not cause any change
collagen fibers in liver tissue (Sirius red staining) [3]: Almost no collagen fibers
